Drawing on publication PMC2993942, this text covers binding for 1 substance.

The chains behind the UniProt entries cited, without tags or fusion partners. Where a name states a change or a piece, a line headed by the entry shows the natural chain unless it says otherwise. A line that says so, or that is headed by a name, gives the form on record, which may keep a tag or linker.
UniProt Q16665: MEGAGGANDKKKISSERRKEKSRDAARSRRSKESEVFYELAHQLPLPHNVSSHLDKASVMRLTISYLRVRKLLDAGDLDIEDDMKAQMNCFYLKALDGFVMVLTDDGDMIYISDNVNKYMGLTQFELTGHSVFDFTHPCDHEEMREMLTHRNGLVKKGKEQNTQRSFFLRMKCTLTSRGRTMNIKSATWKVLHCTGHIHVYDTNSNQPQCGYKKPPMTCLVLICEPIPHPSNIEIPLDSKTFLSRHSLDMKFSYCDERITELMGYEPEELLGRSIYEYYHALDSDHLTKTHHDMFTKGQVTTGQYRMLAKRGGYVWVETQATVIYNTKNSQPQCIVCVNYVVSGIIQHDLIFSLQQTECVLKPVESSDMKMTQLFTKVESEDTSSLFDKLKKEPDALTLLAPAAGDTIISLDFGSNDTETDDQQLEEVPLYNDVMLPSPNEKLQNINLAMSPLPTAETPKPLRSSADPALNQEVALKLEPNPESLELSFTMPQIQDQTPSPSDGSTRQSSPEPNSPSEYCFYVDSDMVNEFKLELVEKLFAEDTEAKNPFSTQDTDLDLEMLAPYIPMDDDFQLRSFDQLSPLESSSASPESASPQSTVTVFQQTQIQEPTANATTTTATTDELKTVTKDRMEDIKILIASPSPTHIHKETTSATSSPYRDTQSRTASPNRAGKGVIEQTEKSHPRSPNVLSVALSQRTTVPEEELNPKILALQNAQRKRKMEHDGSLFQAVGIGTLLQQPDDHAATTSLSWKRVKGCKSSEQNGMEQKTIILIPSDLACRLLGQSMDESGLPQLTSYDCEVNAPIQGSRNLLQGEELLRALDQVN
CHIP K30A c-myc (Q9UNE7-1, form named): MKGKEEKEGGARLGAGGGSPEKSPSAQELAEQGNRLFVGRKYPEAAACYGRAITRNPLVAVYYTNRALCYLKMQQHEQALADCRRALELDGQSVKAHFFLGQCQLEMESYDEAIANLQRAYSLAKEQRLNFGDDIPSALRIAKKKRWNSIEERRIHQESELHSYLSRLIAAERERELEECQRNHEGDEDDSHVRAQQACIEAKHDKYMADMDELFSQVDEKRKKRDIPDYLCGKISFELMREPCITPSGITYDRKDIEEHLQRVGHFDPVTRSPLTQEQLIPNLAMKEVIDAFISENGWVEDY

These are yes or no findings as the source states them, for the method shown. Binding seen in cells or lysates may run through a third protein.

In the experiment the target is Hypoxia-inducible factor-1 alpha (HIF-1α) (human (endogenous in ARPE-19)) (UniProt Q16665). As to the kind of experiment: co-IP; endogenous HIF-1α immunoprecipitated with anti-HIF-1α from lysates (0.5% NP-40, 150 mM NaCl, pH 7.4) of ARPE-19 cells transfected with c-myc CHIP constructs; cells treated with MG132 (20 µM) with or without MGO (3 mM, 40 or 70 minutes); blot for c-myc.

In the case of “CHIP K30A c-myc (from UniProt Q9UNE7-1 1-303) (enzyme)”, the binding entry is recorded as “no binding”.
